Results on 1 substance are retold here after PMC9307851.

No constants are given. Whether binding was seen depends on the method and setting. Binding seen in cells or lysates may run through a third protein. Some results given as binding are weak or reduced against the parent protein; the word gives no strength.

The target in experiment [1] is Flag-tagged full-length DNMT3B (isoform 1), R670Q (human) (UniProt Q9UBC3). In words: co-IP; whole cell lysate (50 mM Tris-HCl pH 8.0, 150 mM NaCl, 1% NP-40); primary antibody overnight, protein A/G beads, immunoblotting. (Immunoblotting shows a protein as a band on a membrane.)
In experiment [2] the target is Flag-tagged full-length DNMT3B (isoform 1), L664P (human) (UniProt Q9UBC3). The experiment is described as above.

HDAC2 (from UniProt Q92769 1-488): the binding entry in experiment [1] and in experiment [2] was “binds” each time.
